Laboratory results published in patent publication US20230176066A1, “PLASMON-ENHANCED FLUORO-DOT ASSAYS” (Washington University, priority 2021, published 2023).

Test system: TNFα
Test: Comparison of fluorescent labels in the Fluoro-dot assay (signal, signal-to-noise ratio)
Set-up: species or system Mouse
Conditions: for fluorescence signal of secreted TNFα under epifluorescence microscope: LPS-treated JAWS II DCs, 90 minutes, biotinylated TNFα detection antibody
[1] = single cell secreting TNFα, line-scans

Row | Substance | fluorescence signal of secreted TNFα under epifluorescence microscope | fluorescence signal of secreted TNFα under epifluorescence microscope (listed as quantum dots) | fluorescence signal of secreted TNFα under epifluorescence microscope (listed as conventional fluorophore) | signal-to-noise ratio, higher compared to conventional fluorophore [1] | signal-to-noise ratio, higher compared to quantum dots [1]
1 | Strep-Qdot™ 655: streptavidin-quantum dot 655 (Thermo Fisher Scientific Q10123MP) | very faint signal | no discernable signal |  |  | 
2 | conventional fluorophores: streptavidin-Cy5 (Thermo Fisher Scientific SA1011) used as conventional fluorophore | a signal could not be discerned |  | no discernable signal |  | 
3 | Cy5-plasmonic-fluor: Streptavidin-conjugated Cy5 plasmon-enhanced fluorescent nanolabel purchased from Auragent Bioscience | robust signal |  |  | ~45 fold | ~10 fold
